Experimental data reported in patent US20220387268A1, “OIL-IN-WATER MACROEMULSION” (SYMRISE AG, priority 2019, published 2022).

What was measured:
[1] = log P value (octanol:water); type: physicochemical; conditions: water/n-octanol
Source text: The partition coefficient (P) is the ratio of concentrations of a compound in a mixture of two immiscible solvents at equilibrium. This ratio is therefore a comparison of the solubility of the solute in these two liquids. In the chemical and pharmaceutical sciences, both phases usually are solvents. Most commonly, one of the solvents is water, while the second is hydrophobic such as 1-octanol.
Log P=log 10(Partition Coefficient)
Partition Coefficient,P=[organic]/[aqueous]

water solubility = type: physicochemical; conditions: room temperature

CCCCCCCC1CCC(=O)O1 (centres unmarked) [ALDEHYD C14 SOG]
log P [1]: 3.06
Water solubility (water solubility): 99 µg/mL
